Data as given in PubChem BioAssay AID720505 (Drosophila RNAi Screening Center, 2013)
Test: 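Genes needed for store-operated calcium entry in fly cells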 (primary screen). Cell system: Drosophila S2R+ cells. Reagent: long dsRNA against Drosophila genes. Treatment: thapsigargin (2 µM) in calcium-free buffer to empty internal stores, then 2 mM calcium added back. Measurement: 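Stores emptied by 2 µM thapsigargin without calcium, then 2 mM calcium re-added; fluo-4 fluorescence followed by FLIPR in 384-well plates, per-well averaged endpoint, raw; two screen passes, some wells retested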. Direction: calcium signal and retest calcium signal: higher = more calcium entry after store depletion. Active means: 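About 1500 genes called as lowering calcium entry, by varying amounts, judged against per-plate control wells with STIM1 as positive and Rho1 as negative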. Meaning of the calls: active = called as lowering calcium entry; inactive = not called.
In all, the deposit lists about 20,000 reagents; this is a random part of those that have a named target and a result. In the full data, about 2,100 (10%) were called active. 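Raw plate signals without normalisation; calls rest on control-based scores that were not deposited; replicate 2 separates called from uncalled poorly.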 A plus sign joins genes that one reagent is predicted to hit. Not given: the amount of reagent, the time to read-out.

gene,dsRNA,"calcium signal, replicate 1","calcium signal, replicate 2","retest calcium signal, replicate 1","retest calcium signal, replicate 2",call
Or67a (Odorant receptor 67a),DRSC11240,38.1,123,,,inactive
Mybbp1A (MYB binding protein 1a),DRSC18788,97.8,134,,,inactive
al (aristaless),DRSC00799,183,140,104,88.2,inactive
CG14805,DRSC18554,118,123,,,inactive
LeuRS (Leucyl-tRNA synthetase),DRSC00581,194,124,,,inactive
stumps,DRSC15332,148,138,,,inactive
stumps,DRSC17073,157,126,,,inactive
ball (ballchen),DRSC14145,108,114,,,inactive
CG7582,DRSC16261,122,90.2,,,inactive
capu (cappuccino),DRSC00208,85.1,125,,,active
capu (cappuccino),DRSC00209,78,96.5,,,inactive
capu (cappuccino),DRSC00434,167,85.5,,,inactive
capu (cappuccino),DRSC00807,128,190,,,inactive
beat-Vb (beaten path Vb),DRSC14844,84.5,164,,,inactive
beat-Vb (beaten path Vb),DRSC14845,42,157,,,active
CG4661,DRSC19910,72,130,,,active
CG42324,DRSC08431,110,93,,,inactive
CG42324,DRSC08432,88.7,93.5,,,inactive
CG14132,DRSC10136,52,54.2,,,active
pdgy (pudgy),DRSC19064,71.5,125,,,inactive
pdgy (pudgy),DRSC19341,171,110,,,inactive
CG12499,DRSC14521,107,112,,,inactive
Gga,DRSC18260,158,154,,,inactive
CG14625,DRSC18633,134,130,,,inactive
CG16710,DRSC15136,74.4,88.2,,,inactive
CG17270,DRSC15209,166,420,,,inactive
CG9674,DRSC11088,120,71.6,,,inactive
CG9674,DRSC11089,80.9,140,,,inactive
RpL40 (Ribosomal protein L40),DRSC00782,90.8,102,,,inactive
CSN1a (COP9 signalosome subunit 1a),DRSC01951,108,112,,,inactive
eIF3a (eukaryotic translation initiation factor 3 subunit a),DRSC12339,77.7,139,,,inactive
Past1 (Putative Achaete Scute Target 1),DRSC16784,211,102,,,inactive
CG32267,DRSC21561,211,96.5,,,inactive
"ash1 (absent, small, or homeotic discs 1)",DRSC11325,111,101,,,inactive
CG13390,DRSC02261,157,181,,,inactive
CG3222,DRSC10355,94.9,105,,,inactive
Gp93 (Glycoprotein 93),DRSC15827,111,134,,,inactive
Acbp6 (Acyl-CoA binding protein 6),DRSC10217,72,57.1,,,inactive
Sbp2 (SECIS-binding protein 2),DRSC10766,50.1,89.9,,,active
CG15550,DRSC15088,157,130,,,inactive
UGP + PGRP-LF,DRSC10418,100,117,,,inactive
Ctr1A (Copper transporter 1A),DRSC18336,151,89,,,inactive
nompC (no mechanoreceptor potential C),DRSC03581,94.4,90.6,,,inactive
Hsc70-1 (Heat shock protein 70 cognate 1),DRSC11185,97,81.7,,,inactive
CG13001,DRSC19520,109,147,7515,170,inactive
CG13001,DRSC22443,147,186,,,inactive
Rpt1 (Regulatory particle triple-A ATPase 1),DRSC07542,91.4,71.2,,,inactive
Ubc10 (Ubiquitin conjugating enzyme 10),DRSC07568,119,120,,,inactive
CG8500,DRSC16434,143,77.8,,,inactive
Mdr50 (Multi drug resistance 50),DRSC07467,116,168,,,inactive
BG642163,DRSC00342,81.1,97.3,,,inactive
BG642163,DRSC00343,114,106,,,inactive
TwdlU (TweedleU),DRSC12224,108,126,,,inactive
CG5273,DRSC18612,79.8,107,,,inactive
CG17572,DRSC02629,130,101,,,inactive
Sprn (Spermitin),DRSC10132,48.1,73.7,,,active

Reprinted from above (7 entries):
gene,dsRNA,"calcium signal, replicate 1","calcium signal, replicate 2","retest calcium signal, replicate 1","retest calcium signal, replicate 2",call
CG14805,DRSC18554,118,123,,,inactive
LeuRS (Leucyl-tRNA synthetase),DRSC00581,194,124,,,inactive
stumps,DRSC15332,148,138,,,inactive
stumps,DRSC17073,157,126,,,inactive
ball (ballchen),DRSC14145,108,114,,,inactive
CG7582,DRSC16261,122,90.2,,,inactive
capu (cappuccino),DRSC00208,85.1,125,,,active
